Data: PubChem BioAssay AID2685 (National Center for Advancing Translational Sciences (NCATS), 2010)
The other results are listed elsewhere or left out. Further columns of the screen follow, without active or inactive calls. The list favours compounds with an active or inconclusive main result. The note in brackets gives the kind of curve behind each potency; many fits are weak.

Assay: qHTS Assay for Lipid Storage Modulators in Drosophila S3 Cells;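 as to cell number change: cells counted by Cell Tracker Red CMTPX staining in the red channel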
Settings: BODIPY lipid droplet fluorescence, 18-24 h; for cell number change: measured here: cell count max response, cells fed with added oleic acid
How it was run: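 Laser-scanning cytometry quantifies lipid droplet accumulation (500–530 nm total intensity; droplet/cell object ratio) in oleic acid-fed (400 uM added) Drosophila S3 cells treated with a concentration series. 20 uM Triacsin C defined 100% inhibition.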

[1] = measured here: lipid fluorescence (Fed channel) AC50, cells fed with added oleic acid
[2] = measured here: cell number channel AC50, cells fed with added oleic acid

| Structure (SMILES) | cell number change | AC50 [1] | AC50 [2] |
| --- | --- | --- | --- |
| O=C(Nc1oc2ccc(Cl)cc2c(=O)c1-c1ccc(F)cc1)c1ccco1 | -22.4% | 29.1 µM [falling, single point] |  |
| Cc1cc2c(s1)c(C#N)c(C(=O)NCc1ccccc1F)n2C | 46.8% | 23.1 µM [rising, partial curve, poor fit] | 18.4 µM [rising, single point] |
| CCCN(CC(=O)Nc1ccccc1C)C(=O)c1ccc2c(c1)OCO2 | -31.5% | 29.1 µM [falling, single point] | 1.84 µM [falling, partial curve, poor fit] |
| Cc1cccc(-n2c(CNC(=O)COc3ccccc3)nnc2SCC(=O)Nc2nccs2)c1 | -6.9% | 1.46 µM [falling, partial curve, poor fit] |  |
| N#Cc1cccc(C(c2nnnn2CCc2ccccc2)N2CCN(C3CCCCC3)CC2)c1 (centres undefined) | 5.41% |  |  |
| CC(C)Oc1ccc(C(CCNCc2ccc(O)cc2)c2ccccc2)cc1 (centres undefined) | -25.2% | 29.1 µM [falling, single point] | 0.146 µM [rising, partial curve, poor fit] |
| COc1ccccc1OCCSc1nnc(C)n1-c1ccccc1 | -0.694% |  | 0.00461 µM [rising, full curve, poor fit] |
| Cc1cc2c(nn1)CCc1c-2no[n+]1[O-] | -3.51% |  | 0.92 µM [falling, full curve, poor fit] |
| CCN1C(=NCC(C)C)N[C@@H](c2ccccc2)[C@H](C(=O)OC)[C@H]1C | 25.6% | 29.1 µM [rising, single point] |  |
| Cn1c(O)c(N=NC(=O)CNC(=O)c2ccccc2)c2cc(Br)ccc21 | 3.48% |  |  |
| CC(=O)Nc1ccc(OCC=C(Cl)Cl)cc1 | 108% | 2.06 µM [rising, partial curve] | 14.6 µM [rising, partial curve] |
| CCCC(=O)NC(NC(=S)Nc1ccc(N=Nc2ccccc2)cc1)C(Cl)(Cl)Cl (centres undefined) | -39.8% | 18.4 µM [falling, single point] | 18.4 µM [falling, single point] |
| O=C(CN1CCCCC1)Nc1cccc(Cl)c1 | 28.3% |  |  |
| C/C(Nc1ccc(Cl)cc1)=C(/C#N)C(N)=O | -10.7% | 0.164 µM [falling, full curve, poor fit] |  |
| COCCNC(=O)COC(=O)c1ccc(S(=O)(=O)N2CCOCC2)cc1 | -39.2% | 32.6 µM [falling, single point] | 32.6 µM [falling, single point] |
| CC1CCC(NC(=O)C2CC(=O)N(c3ccc4c(c3)OCCO4)C2)CC1 (centres undefined) | 0.206% | 0.00411 µM [rising, partial curve, poor fit] |  |
| O=C(c1ccco1)N1CCN(CCCCOc2ccc(F)cc2)CC1 | -1.42% |  | 6.51 µM [falling, single point] |
| CCN(c1ccc(NC(=O)COC(=O)c2cccs2)cc1)C(C)C | 16.8% | 6.51 µM [rising, single point] |  |
| COc1ccc(CC(=O)NNC(=O)COc2ccc(Cl)cc2C)cc1S(=O)(=O)N1CCOCC1 | -14.9% |  |  |

Of the compounds above, these contain an aryl thioether with sulfur outside any ring:

| Structure (SMILES) | cell number change | AC50 [1] | AC50 [2] |
| --- | --- | --- | --- |
| Cc1cccc(-n2c(CNC(=O)COc3ccccc3)nnc2SCC(=O)Nc2nccs2)c1 | -6.9% | 1.46 µM [falling, partial curve, poor fit] |  |
| COc1ccccc1OCCSc1nnc(C)n1-c1ccccc1 | -0.694% |  | 0.00461 µM [rising, full curve, poor fit] |

Next records follow:

| Structure (SMILES) | cell number change | AC50 [1] | AC50 [2] |
| --- | --- | --- | --- |
| Cn1ncc2c1ncn1nc(COc3ccc4ccccc4c3)nc21 | -0.194% | 0.092 µM [rising, full curve, poor fit] |  |
| COC(C(=O)N/N=C(\C)c1ccc(C)cc1)c1ccccc1 (centres undefined) | -35.7% |  | 20.6 µM [falling, partial curve] |
| Cc1ccccc1C(=O)Nc1ccccc1C(=O)NCC(C)C | -19.3% | 0.517 µM [falling, partial curve] |  |
| COCCNC(=O)C(c1ccc(F)cc1)N(CCOC)C(=O)CCC(=O)Nc1nccs1 (centres undefined) | -3.21% |  |  |
| COC(=O)c1ccc(NC(=O)CSc2nnc(COc3ccccc3)n2C)cc1 | -218% | 0.651 µM [falling, single point] |  |
| NC(=O)c1nsc(C(=O)N(Cc2cccnc2)C(C(=O)NC2CCCC2)c2ccc(F)cc2)c1N (centres undefined) | -3.48% |  |  |
| COc1cccc(C(=O)Cn2c(NCCCO)nc3ccccc32)c1 | 13.5% | 29.1 µM [falling, single point] |  |
| CC(=O)c1cccc(NC(=O)C(C)OC(=O)c2ccc(-n3cnnn3)cc2)c1 (centres undefined) | -10.5% | 0.206 µM [rising, partial curve, poor fit] |  |
| O=C(COC(=O)c1cccnc1)NC1CCCc2ccccc21 (centres undefined) | 17.9% |  |  |
| CC(c1c(O)c2ccccc2[nH]c1=O)C1(C)CCC(O)C(C)(C)O1 (centres undefined) | -20.8% | 32.6 µM [falling, single point] |  |
| COc1ccc(NC(=O)Nc2ccc3c(c2)N(C)C(=O)CS3)cc1Cl | -15.5% | 0.164 µM [falling, partial curve, poor fit] | 0.0731 µM [falling, full curve, poor fit] |
| CCN1CCN(c2cc(C)c3cc(NC(=S)N(C)Cc4ccccc4)ccc3n2)CC1 |  | 29.1 µM [rising, single point] |  |
| COc1ccccc1NC(=O)CN1C(=O)NC2(CCCCCCC2)C1=O | -14.8% | 7.08 µM [falling, full curve, poor fit] |  |
| CCOC(=O)c1ccc(P(=O)(c2ccccc2)c2ccccc2)cc1 | 2.92% | 20.6 µM [rising, single point] |  |
| Cc1c(C(=O)N2CCCCC2)c(S(=O)(=O)NCCc2ccc(S(N)(=O)=O)cc2)c(C)n1C | 1.48% | 0.651 µM [falling, single point] |  |
| COc1ccccc1N1CCN(C(=O)c2sc3nc(-c4ccccc4)cn3c2C)CC1 | 18.8% |  |  |
| Cc1cc(N2CCOCC2)nc2ccc(NC(=S)N3CCN(Cc4ccccc4)CC3)cc12 | -22.9% |  | 0.411 µM [falling, full curve, poor fit] |
| COC(=O)C1=C(Nc2ccc(OC)cc2)C=C(C)C(C(=O)OC)C1c1ccc(C)cc1 (centres undefined) | -59.3% |  |  |
| CCCOc1cc(N(CC)CC)ccc1/C=C(/C#N)c1nc2ccc(C)cc2[nH]1 | -98.4% | 0.411 µM [falling, full curve] | 2.59 µM [falling, full curve] |
